# Source: PubChem BioAssay AID1671190 (National Center for Advancing Translational Sciences (NCATS), 2021)
# The chains behind the UniProt entries cited, without tags or fusion partners. Where a name states a change or a piece, a line headed by the entry shows the natural chain unless it says otherwise.
# UniProt P18054: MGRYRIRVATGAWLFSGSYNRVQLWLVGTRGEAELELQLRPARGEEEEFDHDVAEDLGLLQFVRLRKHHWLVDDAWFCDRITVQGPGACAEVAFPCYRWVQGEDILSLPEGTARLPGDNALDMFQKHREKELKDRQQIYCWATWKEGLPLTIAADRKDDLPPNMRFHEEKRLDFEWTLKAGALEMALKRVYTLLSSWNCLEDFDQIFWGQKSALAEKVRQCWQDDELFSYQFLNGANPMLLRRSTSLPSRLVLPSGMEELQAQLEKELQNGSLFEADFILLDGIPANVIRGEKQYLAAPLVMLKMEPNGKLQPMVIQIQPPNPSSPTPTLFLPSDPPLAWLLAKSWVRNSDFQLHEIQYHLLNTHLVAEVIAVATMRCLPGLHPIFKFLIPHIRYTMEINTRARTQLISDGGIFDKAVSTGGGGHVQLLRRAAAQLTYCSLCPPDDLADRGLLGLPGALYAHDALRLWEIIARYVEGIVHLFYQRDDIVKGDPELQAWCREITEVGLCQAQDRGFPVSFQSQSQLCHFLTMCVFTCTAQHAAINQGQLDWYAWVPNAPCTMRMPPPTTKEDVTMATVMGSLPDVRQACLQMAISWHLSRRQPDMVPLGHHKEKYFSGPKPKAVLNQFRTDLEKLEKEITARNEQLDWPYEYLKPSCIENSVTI
# Hit rate of the full screen: of about 580,000 compounds, about 6,100 (1.1%) were called active. The inconclusive results got no clear call from the source; some entries with a clear call stand among them for comparison. Calls follow the shape of the dose curve; as a rule, active = well fitted inhibition curve with a large enough effect; inconclusive = small, poorly fitted or top-dose-only effect, or another doubt; inactive = no such curve, though single readings can be large or run the other way. Potencies of inconclusive entries are doubtful fits and often do not repeat.
# Biological target: Polyunsaturated fatty acid lipoxygenase ALOX12 (Homo sapiens) (UniProt P18054)
# Assay: Primary qHTS assay for inhibitors of human arachidonate 12S-lipoxygenase (ALOX12): Round 2
# Settings: purified 12hLO, xylenol orange hydroperoxide absorbance; activity change, negative = inhibition: at 108 µM (top of the series) unless noted
# Outline: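 Hydroperoxide product was detected by ferrous iron/xylenol orange as the 573 to 405 nm absorbance ratio. Arachidonic acid at 40 uM (final) was turned over for 30 min at room temperature by 150 nM human 12hLO, pH 7.0 Hepes buffer, after 15 min compound preincubation.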
# % is scaled to controls: 0 for no effect and ±100 for the full control effect; potency is read from the fitted curve at half-maximal effect.
Compound,Potency,"activity change, negative = inhibition"
O=C1N=C(N2CCCC2C(=O)O)S/C1=C\c1ccco1 (centres undefined),inactive,–
O=C(Nc1ccc(Nc2ccccc2)cc1)c1cccc(F)c1,inactive,–
O=C(NCc1ccccc1)c1cc2nc(C3CC3)cc(C(F)(F)F)n2n1,inactive,–
CCN(CC)c1ccc(NC(=O)COC(=O)c2ccc3ccccc3n2)cc1,"inconclusive: 2.51 µM [inhibitor, full curve, poor fit]",–
CCc1ccc(-c2[nH]c3c(c2-c2sc(C)c(C(=O)OC)c2O)c(=O)[nH]c(=O)n3C)cc1,"inconclusive: 5.62 µM [inhibitor, full curve, poor fit]",–
Cc1noc(C)c1S(=O)(=O)N1CCC2(CC1)NCCc1c2[nH]c2ccccc12,inactive,–
CCCCn1c(N)c(N(CCOC)C(=O)c2cc(-c3ccc(OC)c(OC)c3)nc3ccccc23)c(=O)[nH]c1=O,active: 15.8 µM,–
O=C(O)c1cc(N=Cc2c(O)c3ccccc3oc2=O)ccc1O,"inconclusive: 22.4 µM [inhibitor, partial curve, poor fit]",–
COc1ncccc1C(=O)Nc1c(-c2ccccc2)[nH][nH]c1=O,"inconclusive: 141 µM [inhibitor, single point]",–
CC(CCc1ccccc1)NC(=O)c1ccc2c(c1)N(Cc1ccccc1)C(=O)CS2=O (centres undefined),"inconclusive: 0.224 µM [inhibitor, full curve, poor fit]",–
OC(C#CCN1CCC(c2ccccc2)C1)(c1ccccc1)C1CCCCC1 (centres undefined),active: 0.891 µM,–
COc1ccc(-c2cc(C(=O)OCC3CCCO3)c3ccccc3n2)cc1OC (centres undefined),"inconclusive: 89.1 µM [inhibitor, single point]",–
CC(C)N=C1NN=C(c2ccc(F)cc2)CS1,inactive,–
CCCCN1C(=O)C(O)(c2c[nH]c3ccccc23)c2cc(Br)ccc21 (centres undefined),"inconclusive: 112 µM [inhibitor, partial curve, poor fit]",–
CCOc1ccccc1NC(=O)COC(=O)c1ccc2ccccc2n1,"inconclusive: 50.1 µM [inhibitor, partial curve, poor fit]",–
CCCCN(CCCC)S(=O)(=O)c1ccc2oc(C(=O)NCc3ccc(C)cc3)c(C)c2c1,inactive,–
O=C(CCCN1CCN(c2ccc(F)cc2)CC1)NC1c2ccccc2CSc2ccccc21 (centres undefined),"inconclusive: 19.3 µM [inhibitor, partial curve, poor fit]",–
O=C(CSc1nc2nc(-c3cccs3)cc(C(F)(F)F)c2c(=O)[nH]1)NCc1ccco1,"inconclusive: 35.5 µM [inhibitor, partial curve, poor fit]",–
N=c1c(C(=O)NCc2ccco2)cc2c(=O)n3ccccc3nc2n1Cc1ccc(Cl)cc1,"inconclusive: 35.5 µM [inhibitor, partial curve, poor fit]",–
Cc1cc(=O)oc2c(C)c(OCC(=O)Nc3ccc(Br)cc3)ccc12,"inconclusive: 79.4 µM [inhibitor, partial curve, poor fit]",–
Cc1ccc(NC(=S)N(Cc2ccc(Cl)cc2)Cc2ccc(C(=O)O)cc2)cc1Cl,"inconclusive: 39.8 µM [inhibitor, partial curve, poor fit]",–
CC(C)C[C@H]1CNC(=S)N1C[C@H]1CCCN1C[C@H](CC(C)C)N1C[C@H](Cc2ccc(O)cc2)N(CC2CCCCC2)C1=S,"inconclusive: 44.7 µM [inhibitor, partial curve, poor fit]",–

# Sorted by heavy-atom count (smallest number first): 14 of the compounds above.
Compound,Potency,"activity change, negative = inhibition"
CC(C)N=C1NN=C(c2ccc(F)cc2)CS1,inactive,–
O=C1N=C(N2CCCC2C(=O)O)S/C1=C\c1ccco1 (centres undefined),inactive,–
O=C(Nc1ccc(Nc2ccccc2)cc1)c1cccc(F)c1,inactive,–
O=C(O)c1cc(N=Cc2c(O)c3ccccc3oc2=O)ccc1O,"inconclusive: 22.4 µM [inhibitor, partial curve, poor fit]",–
CCCCN1C(=O)C(O)(c2c[nH]c3ccccc23)c2cc(Br)ccc21 (centres undefined),"inconclusive: 112 µM [inhibitor, partial curve, poor fit]",–
O=C(NCc1ccccc1)c1cc2nc(C3CC3)cc(C(F)(F)F)n2n1,inactive,–
OC(C#CCN1CCC(c2ccccc2)C1)(c1ccccc1)C1CCCCC1 (centres undefined),active: 0.891 µM,–
Cc1ccc(NC(=S)N(Cc2ccc(Cl)cc2)Cc2ccc(C(=O)O)cc2)cc1Cl,"inconclusive: 39.8 µM [inhibitor, partial curve, poor fit]",–
O=C(CSc1nc2nc(-c3cccs3)cc(C(F)(F)F)c2c(=O)[nH]1)NCc1ccco1,"inconclusive: 35.5 µM [inhibitor, partial curve, poor fit]",–
CC(CCc1ccccc1)NC(=O)c1ccc2c(c1)N(Cc1ccccc1)C(=O)CS2=O (centres undefined),"inconclusive: 0.224 µM [inhibitor, full curve, poor fit]",–
CCCCN(CCCC)S(=O)(=O)c1ccc2oc(C(=O)NCc3ccc(C)cc3)c(C)c2c1,inactive,–
O=C(CCCN1CCN(c2ccc(F)cc2)CC1)NC1c2ccccc2CSc2ccccc21 (centres undefined),"inconclusive: 19.3 µM [inhibitor, partial curve, poor fit]",–
CCCCn1c(N)c(N(CCOC)C(=O)c2cc(-c3ccc(OC)c(OC)c3)nc3ccccc23)c(=O)[nH]c1=O,active: 15.8 µM,–
CC(C)C[C@H]1CNC(=S)N1C[C@H]1CCCN1C[C@H](CC(C)C)N1C[C@H](Cc2ccc(O)cc2)N(CC2CCCCC2)C1=S,"inconclusive: 44.7 µM [inhibitor, partial curve, poor fit]",–

# Next entries follow:

Compound,Potency,"activity change, negative = inhibition"
O=C(Nc1ccc(Br)cc1Br)Nc1cccc2[nH]c([C@@H]3O[C@H](CO)[C@@H](O)[C@H](O)[C@H]3O)nc12,"inconclusive: 50.1 µM [inhibitor, partial curve, poor fit]",–
Cc1c(Cl)cccc1Nc1nc(NCCO)c2ccccc2n1,"inconclusive: 112 µM [inhibitor, partial curve, poor fit]",–
Cc1noc(C)c1-c1cc(-c2cccc(N3CCOCC3)c2)cn2cncc12,inactive,–
CC(C)c1ccc(NC(=O)Nc2nc(C(N)C3CCCCC3)cs2)cc1 (centres undefined),"inconclusive: 89.1 µM [inhibitor, partial curve, poor fit]",–
CCC(C)Nc1oc(/C=C/c2cccc(OC)c2)nc1C#N (centres undefined),"inconclusive: 11.2 µM [inhibitor, partial curve, poor fit]",–
CC(C)NC[C@H]1O[C@@H](CO)[C@@H](O)[C@H]1N1CCN(c2ccccn2)CC1,"inconclusive: 6.31 µM [inhibitor, full curve, poor fit]",–
Cc1cccc(Nc2nc(C(=O)NCCCN3CCOCC3)cs2)c1,inactive,–
C[C@H](O)C#Cc1cnc2c(c1)C(=O)N([C@H](C)CO)C[C@@H](C)[C@@H](CN(C)Cc1ccc(-c3ccccc3)cc1)O2,"inconclusive: 141 µM [inhibitor, partial curve, poor fit]",–
CCn1c(SCC(=O)Nc2ccccc2Br)nnc1-c1cnccn1,inactive,–
COCCN(CCOC)Cc1cc(=O)oc2cc(C)c(Cl)cc12,active: 44.7 µM,–
O=C(c1cc(C2CC2)[nH]n1)N1CCC2(CC1)NC(=O)N(c1cccc(F)c1)N2,active: 11.2 µM,–
CCc1nc2c(OCc3ccc(F)cc3)cccn2c1N(C)C(=O)c1ccncc1,inactive,–
Cn1cccc1C(=O)N1CCC2(CC1)CCN(c1ccccc1)CC2,"inconclusive: 35.5 µM [inhibitor, single point]",–
COc1cc(/C=C/C(=O)c2ccccc2OC)ccc1OC(F)F,"inconclusive: 44.7 µM [inhibitor, single point]",–
CC(C)c1ccc(C(=O)Cn2cnc3c2c(=O)n(C)c(=O)n3C)c(C(C)C)c1,inactive,–
COc1ccc(-c2nnc3n2CCN([S+](=O)([O-])c2ccc(C)cc2)C3)cc1,inactive,–
COc1c(O)c2c(=O)cc(OC)c3c4c(OC)cc(=O)c5c(O)c(OC)c(C[C@@H](C)OC(=O)c6ccccc6)c(c(c1C[C@@H](C)OC(=O)Oc1ccc(O)cc1)c23)c54,–,inactive: 23.9% [at 6.33 µM]
Cc1c(C(=O)O)sc(=S)n1-c1ccccc1,"inconclusive: 39.8 µM [inhibitor, partial curve, poor fit]",–
Cc1ccc(-c2onc(C)c2C)cc1S(=O)(=O)N1c2ccccc2CC1C (centres undefined),inactive,–
Oc1c(N=Nc2nn[nH]n2)ccc2ccccc12,"inconclusive: 44.7 µM [inhibitor, partial curve, poor fit]",–
Fc1ccc(CNc2nc(-c3cccnc3)nc3ccccc23)cc1,"inconclusive: 70.8 µM [inhibitor, partial curve, poor fit]",–
O=C(Nc1cccc(Cl)c1)O/N=C\c1ccncc1,inactive,–

Compound,Potency,"activity change, negative = inhibition"
O=C(COC(=O)c1ccccc1C(=O)c1ccc(Cl)c([N+](=O)[O-])c1)NC12CC3CC(CC(C3)C1)C2,"inconclusive: 141 µM [inhibitor, partial curve, poor fit]",–
Oc1cc2c(c(Cl)c1O)CCNC[C@H]2c1ccccc1,"inconclusive: 7.08 µM [inhibitor, full curve, poor fit]",–
CC(NC(=S)Nc1ccc(OC(F)F)cc1)c1ccc(F)cc1 (centres undefined),"inconclusive: 44.7 µM [inhibitor, partial curve, poor fit]",–
CCOc1ccc(OCCSc2nc3ccccc3n2CC(=O)O)cc1,"inconclusive: 89.1 µM [inhibitor, single point]",–
Cc1nnc(NC(=O)c2ccc3c(c2)OCO3)s1,"inconclusive: 35.5 µM [inhibitor, partial curve, poor fit]",–
COc1ccc(CCNC(=O)c2ccc(NC(=O)CC3SC(N4CCCC4)=NC3=O)cc2)cc1 (centres undefined),"inconclusive: 2.51 µM [inhibitor, full curve, poor fit]",–
CC1(CCCCc2ccccc2)COc2ccc(C(=O)N3CC(O)C3)cc2N1 (centres undefined),"inconclusive: 126 µM [inhibitor, partial curve, poor fit]",–
O=C1NCN(Cc2ccc(Cl)cc2)C12CCN(Cc1ccccc1C(F)(F)F)CC2,"inconclusive: 50.1 µM [inhibitor, partial curve]",–
Oc1ccccc1C1=Nc2nc3ccccc3n2C(c2ccccc2)C1 (centres undefined),"inconclusive: 31.6 µM [inhibitor, single point]",–
Cc1ccc(C)c(C(=O)COC(=O)CCSc2ccc(Cl)cc2)c1,"inconclusive: 50.1 µM [inhibitor, partial curve, poor fit]",–
O=C(Cc1cccs1)N1CCc2nn(CC3CC3)c(=O)n2CC1,"inconclusive: 25.1 µM [inhibitor, full curve, poor fit]",–
COc1ccccc1CNc1nc(NCC2CC2)nc2ccsc12,"inconclusive: 39.8 µM [inhibitor, partial curve, poor fit]",–
N#Cc1nc(-c2cccc3ccccc23)oc1NCCN1CCOCC1,"inconclusive: 100 µM [inhibitor, single point]",–
Oc1ccc(Cl)cc1C1=NNC(c2ccc(Cl)cc2)C1 (centres undefined),"inconclusive: 44.7 µM [inhibitor, partial curve, poor fit]",–
COc1cc(C#N)ccc1OC(C)C(=O)Nc1ccc(C)cc1C (centres undefined),"inconclusive: 35.5 µM [inhibitor, single point]",–
c1ccc(CNc2nc(NCc3cccs3)nc3ccsc23)cc1,"inconclusive: 50.1 µM [inhibitor, partial curve, poor fit]",–
COc1cccc(NC(=O)NCc2ccccc2F)c1,inactive,–
COc1ccc(OC)c(/C=N/n2c(C)nc3ccccc3c2=O)c1,inactive,–
O=C(Nc1ccnn1Cc1ccccc1)c1cc(=O)c2cc(Cl)ccc2o1,"inconclusive: 3.16 µM [inhibitor, full curve, poor fit]",–
Cc1ccc(-c2nc(SCC(=O)N(C)C3CCS(=O)(=O)C3)[nH]c2-c2ccc(C)cc2)cc1 (centres undefined),inactive,–
